At least one peptide structure holds a part that was inferred or is arguable (an end, a ring closure or a residue). Where a SMILES comes first, the peptide text is derived from it. [ ]: non-standard residue; d: D form. Sar = CNCC(=O)O
How the values were obtained:
rat L6 cells = experiment: 2-deoxy-D-glucose uptake in rat L6 cells; assay type: cell-based
EDL muscles--male mice = experiment: 2-deoxy-D-[1-3H]glucose uptake into EDL muscles, male mice; assay type: cell-based; conditions: 10^-9 M
Experimental: (§1) Isolated soleus, EDL (extensor digitorum longus) or diaphragm muscles of normal male and female mice were incubated for 30 min at 37° C. in oxygenated Krebs buffer containing 2-deoxy-D-[1-^3 H]glucose. 2-Deoxy-D-glucose is a derivative of D-glucose which is taken up into muscle by carrier-mediated transport and which accumulates in muscle as 2-deoxy-D-glucose-6-phosphate without further metabolism. The tritiated derivative can therefore be used to determine the uptake into muscle of D-glucose (which itself is metabolised). A COOH-terminal (C-terminal) fragment of β-endorphin and an analogue of a β-endorphin fragment were added to the Krebs buffer. These were the C-terminal dipeptide (glycyl-L-glutamine or glycyl-L-glutamic acid) and CH3 CO-Lys-D-Lys-Sar-Glu, a stable analogue of the C-terminal tetrapeptide of β-endorphin. Pyruvate (2 mM) and 2% bovine serum albumen were also present in the bathing medium surrounding the muscles. The extracellular space in the muscles was determined by including L-[1-^14 C] glucose, which is not transported into muscle via the D-glucose membrane carrier.
(§2) At the end of the incubation period, the tissue samples were digested in 1 M NaOH at 90° C. and the radioactivity counted by liquid scintillation counting.
c) EDL muscles--male mice

[1] = tested on: Isolated soleus muscles--female mice; experiment: 2-deoxy-D-[1-3H]glucose uptake into isolated soleus muscles, female mice; assay type: cell-based
Experimental: as §1, §2
b) Isolated soleus muscles--female mice

[2] = tested on: Isolated soleus muscles--male mice; experiment: 2-deoxy-D-[1-3H]glucose uptake into isolated soleus muscles, male mice; assay type: cell-based
Experimental: as §1, §2
a) Isolated soleus muscles--male mice

[3] = tested on: soleus muscles of obese-diabetic (ob/ob) mice; experiment: 2-deoxy-D-glucose uptake in soleus muscles of obese-diabetic (ob/ob) mice; assay type: cell-based; conditions: 10^-7 M
[4] = tested on: EDL muscles of obese-diabetic mice; experiment: 2-deoxy-D-glucose uptake in EDL muscles of obese-diabetic mice; assay type: cell-based; conditions: 10^-7 M
EDL muscles--female mice = experiment: 2-deoxy-D-[1-3H]glucose uptake into EDL muscles, female mice; assay type: cell-based
Experimental: as §1, §2
d) EDL muscles--female mice
Following the procedure outlined in Example 1, it was shown that Gly-Gin in a concentration of 10^-7 M caused a 180% increase in 2-deoxy-D-glucoseuptake in EDL muscles of normal female mice, whilst with Gly-Glu there was an 80% increase.

[5] = tested on: Diaphragm muscles--female mice; experiment: 2-deoxy-D-[1-3H]glucose uptake into diaphragm muscles, female mice; assay type: cell-based
Experimental: as §1, §2
e) Diaphragm muscles--female mice

[6] = tested on: neonatal normal mouse abdominal muscle strips; experiment: 2-deoxy-D-glucose uptake into neonatal normal mouse abdominal muscle strips; assay type: cell-based
dopamine-depleted rats = conditions: rat, in vivo; cited from earlier work

## CC(=O)N[C@@H](CCCCN)C(=O)N[C@H](CCCCN)C(=O)N(C)CC(=O)N[C@@H](CCC(=O)O)C(=O)O [CH3 CO-Lys-D-Lys-Sar-Glu] (Ac-K[dK][Sar]E-OH)
Rat L6 cells; 10^-9 M
  increase in the uptake of 2-deoxy-D-glucose (%): approximately 40%
Rat L6 cells; 10^-9 M peptide in the presence of 10^-8 M insulin
  increase in glucose uptake over that produced by the insulin alone (%): 30%
Rat L6 cells; concentrations of 10^-12 M to 10^-8 M
  effect on uptake of 2-deoxy-D-glucose: effective
EDL muscles--male mice
  increase in the uptake of 2-deoxy-D-glucose into the muscles (%): 600%
  increase in the uptake of 2-deoxy-D-glucose into the muscles (fold): 7 fold
[1]; 10^-8 M
  increase in the uptake of 2-deoxy-D-glucose into the muscles (%): ~100%
  increase in the uptake of 2-deoxy-D-glucose into the muscles (fold): approximately 2 fold
[1]; concentrations of 10^-8 M and 10^-7 M
  effect on uptake of 2-deoxy-D-glucose into the muscles: effective
[2]; 10^-9 M
  increase in the uptake of 2-deoxy-D-glucose into the muscles (%): 800%
  increase in the uptake of 2-deoxy-D-glucose into the muscles (fold): 9 fold
[2]; concentrations of 10^-11 M, 10^-10 M and 10^-9 M
  effect on uptake of 2-deoxy-D-glucose into the muscles: effective
[3]
  increase in 2-deoxy-D-glucose uptake (fold): approximately 2 fold
[4]
  increase in 2-deoxy-D-glucose uptake (%): 70%
EDL muscles--female mice; 10^-7 M, female mice
  increase in the uptake of 2-deoxy-D-glucose into the muscles (fold): 7 fold
EDL muscles--female mice; 10^-7 M, normal female mice
  increase in the uptake of 2-deoxy-D-glucose into the muscles (%): 600%
EDL muscles--female mice; concentrations of 10^-6 M, 10^-7 M and 10^-8 M, female mice
  effect on uptake of 2-deoxy-D-glucose into the muscles: effective
[5]; 10^-8 M
  increase in the uptake of 2-deoxy-D-glucose into the muscles (%): 300%
  increase in the uptake of 2-deoxy-D-glucose into the muscles (fold): 4 fold
[5]; concentrations of 10^-7 M, 10^-8 M and 10^-9 M
  effect on uptake of 2-deoxy-D-glucose into the muscles: effective
[6]; 10^-10 M
  increase in the uptake of 2-deoxy-D-glucose into the muscle strips (%): 40%
[6]; concentrations of 10^-8 M, 10^-9 M and 10^-10 M
  effect on uptake of 2-deoxy-D-glucose into the muscle strips: caused increases
dopamine-depleted rats
  turning response of dopamine-depleted rats to D-amphetamine: significant reductions
